Experimental data published in publication PMC8187409, “The zinc-finger protein Red1 orchestrates MTREC submodules and binds the Mtl1 helicase arch domain” (Nature Communications, 2021).
Positions count from the first letter of the chain named. Results are given in words; binding and its absence hold for the method and conditions named. Some binding calls cover weakened binding; strength is not graded here.

Tests used:
Assay in all cases: two-hybrid; Gal4 BD and AD fusions (pGBKT7/pGADT7 or pG4BDN22/pG4ADHAN111) co-transformed into PJ69-4A; growth after 3 days at 30 °C on SDC-His (weak), SDC-His + 1 mM 3-AT (medium), SDC-Ade (strong)
[1] = molecular target: T1, Red1 (E32A, D33A, E35A) (S. pombe) (UniProt Q9UTR8)
T1 sequence: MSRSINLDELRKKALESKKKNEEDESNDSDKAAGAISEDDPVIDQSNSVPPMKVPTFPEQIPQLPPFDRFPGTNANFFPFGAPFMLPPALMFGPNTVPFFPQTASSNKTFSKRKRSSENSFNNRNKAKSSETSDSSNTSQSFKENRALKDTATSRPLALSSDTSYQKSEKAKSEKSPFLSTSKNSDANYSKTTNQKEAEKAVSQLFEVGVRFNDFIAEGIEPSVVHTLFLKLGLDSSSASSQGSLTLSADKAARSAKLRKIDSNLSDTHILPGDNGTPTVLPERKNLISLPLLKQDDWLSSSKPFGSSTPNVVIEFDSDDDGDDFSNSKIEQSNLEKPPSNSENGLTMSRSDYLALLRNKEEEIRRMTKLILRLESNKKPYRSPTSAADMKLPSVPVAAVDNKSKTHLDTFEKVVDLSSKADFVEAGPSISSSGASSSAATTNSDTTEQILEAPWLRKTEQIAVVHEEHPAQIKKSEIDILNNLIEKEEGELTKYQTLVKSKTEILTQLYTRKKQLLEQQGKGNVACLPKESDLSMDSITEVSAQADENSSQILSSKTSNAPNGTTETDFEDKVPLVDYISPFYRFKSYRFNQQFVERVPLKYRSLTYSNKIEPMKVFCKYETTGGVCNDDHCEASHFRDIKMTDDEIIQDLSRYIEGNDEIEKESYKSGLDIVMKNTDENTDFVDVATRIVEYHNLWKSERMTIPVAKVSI

[2] = molecular target: T2, Red1 (spRed1), full length (S. pombe) (UniProt Q9UTR8)
T2 sequence: T1 sequence with A32E, A33D, A35E

[3] = molecular target: T3, full-length spRed1 (D33A, E35A) (S. pombe) (UniProt Q9UTR8)
T3 sequence: T1 sequence with A32E

B1: Ars2 (spArs2), full length (protein, UniProt O94326 1-609)
chain: MSEVHQESEVEYSRWKRERSPERSQRRSQSPPGEQSAYHRERSPLRKRGNYYDDRTRASGPYPTFTKPLIDPYTQTNAVSYERFIRWYSKENHISATTEDLYNSLHGTYNNYKQDLYARTARSFVESHCDEAWFEDSYWVDESQGRVLEVSENEKSYRRALYDKFMDRLDAGYYDDFQLPTAEDVIEKPSIPDNDTDDSILPSNDPQLSKWNQDSRNDAMENTLLVSHVLPNISVAQIHNALDGISFVQHFSLSTINLIKNDERSLWVHFKAGTNMDGAKEAVDGIQLDSNFTIESENPKIPTHTHPIPIFEIASSEQTCKNLLEKLIRFIDRASTKYSLPNDAAQRIEDRLKTHASMKDDDDKPTNFHDIRLSDLYAEYLRQVATFDFWTSKEYESLIALLQDSPAGYSRKKFNPSKEVGQEENIWLSDLENNFACLLEPENVDIKAKGALPVEDFINNELDSVIMKEDEQKYRCHVGTCAKLFLGPEFVRKHINKKHKDWLDHIKKVAICLYGYVLDPCRAMDPKVVSTSYVSLQILNKPYVGFRNINANYTFPTTSYSRRNDEEITSGASSQKSYSRQEPMIHRREFYRTYQDLDAPNQEVPELDY
[1]
  binding: no binding
[2]
  binding: binds
[3]
  binding: binds weakly
